# In the supplement of paper PMC3334620:
# Over roughly 33,000 sequences, “E-score (-0.5 to 0.5)” has its median near -8e-05; the highest 2% begin near 0.23. Some of the results follow.
# Molecular target: T1, Nrg2 (UniProt P38082)
# T1 sequence: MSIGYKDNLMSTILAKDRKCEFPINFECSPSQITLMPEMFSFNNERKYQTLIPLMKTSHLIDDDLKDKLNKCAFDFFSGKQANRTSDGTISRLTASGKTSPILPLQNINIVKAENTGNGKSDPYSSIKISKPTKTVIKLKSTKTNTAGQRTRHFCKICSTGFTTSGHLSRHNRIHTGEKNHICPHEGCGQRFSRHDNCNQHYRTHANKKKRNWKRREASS
# Assay: PBM E-score (8-mer binding enrichment) (E-score (-0.5 to 0.5)); higher = stronger / more preferred TF binding
# Conditions: protein concentration: 100 nM; construct: GST-full length
# How it was run: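 Bound GST-tagged yeast transcription factors, applied at about 100-200 nM to double-stranded universal all-10-mer Agilent arrays, were detected with fluorescent anti-GST. Scans were normalised with masliner. A modified Wilcoxon-Mann-Whitney statistic, the E-score, was assigned to each ungapped eight-base word pooled with its reverse complement by the Universal PBM Analysis Suite.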
row,Sequence,PBM E-score
1,ATGATGGG,0.0257
2,GCGTCAAC,-0.174
3,ATAGCAAG,0.172
4,AGCTTGAT,-0.0862
5,CACTAAGC,-0.0808
6,ACTGCACC,0.0738
7,CACGCAAG,-0.0359
8,GTTAGTCA,-0.115
9,CGGGGACA,0.0777
10,CAGTTCCG,-0.111
11,ATAAGCGC,0.126
12,ATGAGTCC,0.0174
13,AAATTTGG,-0.137
14,GCCAGTCC,-0.189
15,AGAGCCAT,-0.0389
16,CTGCACTC,0.0249
17,AGACCCCG,0.132
18,CTTGCACA,0.0595
19,AATGAGGG,-0.00097
20,GACAAAGC,0.00517
21,CCCACGTC,-0.0663
22,CGCGGCAG,0.109
23,ACCTATCT,0.0514
24,AGCCCGAC,-0.0916
25,ACTGTTTC,-0.093

row,Sequence,PBM E-score
1,GATCGAGC,0.12
2,GACCCCTA,0.151
3,ACCTGGAT,-0.0853
4,TATCGATA,0.106
5,AGCCTAAG,-0.243
6,ACGCGTAT,0.2
7,GGAGTAGA,0.00615
8,ATCGACAG,0.053
9,GTTGTCTA,-0.0246
10,CACACAGA,0.154
11,AACCTATA,-0.0271
12,AGCTGGTC,-0.0762
13,CGTCTAAG,0.0215
14,CCAAGACG,-0.119
15,ACTGTCCA,-0.0837
16,CTTGTCGA,-0.0417
17,ATGAGGTC,-0.142
18,AGTGGTCA,-0.145
19,CAAACGAA,-0.0374
20,AACAAACT,0.122
21,CCACCCGG,-0.0786
22,ACTCAAAG,-0.0492
23,CCTCGACC,-0.128
24,CTCAGCGA,0.0665
25,AGCAAGCC,-0.0587

# Quoted at random: four records from the list, in no set order.
row,Sequence,PBM E-score
1,GATCGAGC,0.12
7,CACGCAAG,-0.0359
8,ATCGACAG,0.053
23,ACCTATCT,0.0514

# Next part.

row,Sequence,PBM E-score
1,AAGCGTGA,0.113
2,CCGGATGA,0.0124
3,CTACCGAG,-0.171
4,ACATGCAG,0.0502
5,CTTTAATA,0.125
6,CGTCGAAC,-0.0858
7,AGACAAAC,-0.0664
8,CTAGTGGC,-0.0913
9,AACAGGTA,0.0321
10,AATAGGCC,-0.146
11,AGCCGGTG,0.0695
12,CTCGCAGA,-0.0929
13,ATCCTACC,-0.0603
14,ACGTCCAT,-0.00778
15,GAGGGTAC,0.0887
16,AGGTGATC,0.00773
17,GGAATTGA,0.189
18,ACTAATGA,0.149
19,CACTCGTA,-0.0342
20,GGGTTACA,-0.143
21,ACGTATTA,0.202
22,ATTGAAAC,0.123
23,TCCGCTCA,-0.0356
24,GCACCTTA,0.0493
25,CAGGATTC,-0.0379

row,Sequence,PBM E-score
1,ACAGTCTC,-0.198
2,CGCGAAGC,0.128
3,CGATCACG,0.0919
4,CGGCCACG,-0.257
5,AGCGCAGG,-0.0457
6,ACTTAGAG,-0.165
7,CAGCAGGC,-0.0392
8,CGGACTAC,-0.0158
9,GTAGTCGA,-0.00498
10,AGTACATG,-0.0555
11,GGGTGTAC,-0.0162
12,ACCTGACA,0.167
13,ACTATGTG,0.108
14,ATTACTGG,-0.0209
15,CCCAGTCA,-0.249
16,CCGGATCC,0.0775
17,AAGGGAGC,-0.187
18,ACCTGAAA,0.00478
19,CAGCGGTC,-0.102
20,ACTTCCGG,-0.165
21,GATAAAGC,-0.00016
22,AAGCATGT,0.0409
23,AAATGTCG,0.0668
24,AGCCAAAT,0.0146
25,CCGTCTGC,0.0171

row,Sequence,PBM E-score
1,ATGCGGTA,-0.0628
2,ACAACGAG,0.0513
3,TATTACAA,0.022
4,CTAGGGGA,0.0651
5,CAGTCACA,-0.0678
6,AATCTCAT,0.0761
7,CTGGTGTC,-0.0326
8,ATTTTTAG,-0.129
9,ACTCACGA,-0.0919
10,AAGGAGCA,-0.0808
11,CACAATCC,-0.00291
12,CTCGACAG,-0.117
13,AACGAACT,-0.127
14,CCAAACTA,0.099
15,GAGCTGCC,-0.131
16,CGGAAAGA,0.0171
17,TCGTCGCA,0.115
18,CCATAACC,0.0412
19,GACACTGC,-0.0906
20,ATCGGTTG,-0.0621
21,ATGAGGCG,-0.0537
22,CTGGGGGC,-0.288
23,ACGATAGT,0.0866
24,GGAGTTCA,-0.0445
25,AGCAATGA,0.0849

# Exported as tab-separated lines: entries from further up.
row	Sequence	PBM E-score
4	AGCTTGAT	-0.0862
21	CCCACGTC	-0.0663
5	CTTTAATA	0.125
9	AACAGGTA	0.0321
13	ATCCTACC	-0.0603
7	CAGCAGGC	-0.0392

# The list goes on.

row,Sequence,PBM E-score
1,TGATCACA,0.00291
2,AGCAACGG,0.218
3,CGAATTCA,0.134
4,CTGGATCA,-0.0464
5,AAATGGCG,0.0803
6,CCTACGTA,-0.129
7,CGGCAATA,0.174
8,TAGAACTA,-0.0342
9,AGCCAGGC,-0.0435
10,AAATTCCG,0.163
11,TGCCGGAA,0.0295
12,GATCCACA,-0.0447
13,GCTGTTTA,0.0662
14,TCACACCA,0.0485
15,ACACTATC,0.129
16,GACGACTA,-0.0919
17,AGCCGGTC,-0.292
18,CCTCTCCA,-0.343
19,CAGAATGC,0.0105
20,GCCCACGC,-0.13
21,ACGGGTGA,0.104
22,CGTCTTCA,0.0161
23,AAATGTAC,0.202
24,ACGAGTCA,-0.246
25,CATAATTC,-0.00086

row,Sequence,PBM E-score
1,AGTGATCC,0.047
2,TAAACTAA,0.186
3,CGAAGAAA,0.111
4,CCGGGAGA,-0.0964
5,GTCTTAAC,0.0196
6,CAATTTAC,0.12
7,CCCCAGTA,-0.00702
8,CCGAAACG,-0.0772
9,CCAAGAGC,-0.00579
10,ATAGGCTC,-0.111
11,CGTAGTGC,-0.0608
12,CGAGAACA,0.0814
13,GATATGCC,0.132
14,CAGATAGA,-0.0814
15,CCGAGCAA,-0.0344
16,CCGCACCA,0.063
17,CCGTGGTC,-0.246
18,GGAAGCCA,-0.222
19,AGTATAGA,0.17
20,CCTTCTAC,-0.00916
21,AAGACAAT,0.054
22,AATGTACG,0.0534
